Compound in this assay: Cc1cc(ccc1-c1ccccc1)C(=O)N1CCCN(CC1)C(=O)CCl [compound 10]
The experiment in a line: probe-labelled cysteine peptide fold change vs DMSO (competition) (log2 fold change); higher = less target engagement (more negative = stronger competition). The following applies: THP-1, incubation time: 4 h.

The values that follow come from the supplement of paper PMC12067093, “Discovery and optimisation of a covalent ligand for TRIM25 and its application to targeted protein ubiquitination” (Chemical Science, 2025).

The list shows a part of the results.
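Also: competitive profiling in live THP-1 cells: cysteine peptides tagged with an iodoacetamide desthiobiotin (IA-DTB) probe, intensity after compound treatment relative to DMSO-treated cells.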

Take “RAD50_Q92878_633_LFDVCGSQDFESDLDRLK (UniProt Q92878)”: the “probe-labelled cysteine peptide fold change” value (10 µM) was 0.217 and the “probe-labelled cysteine peptide fold change” value (50 µM) stood at 0.0288.

In the case of “PWWP2A_Q96N64_233_CEANGAVPDDPSPVPHPELSLAESLWTSKPPPLFHEGAPYPPPLFIR (UniProt Q96N64)”, the “probe-labelled cysteine peptide fold change” value was -0.0763 (10 µM) and -0.294 (50 µM).

Consider “QARS_P47897_433+445+456_WCIYPTYDYTHCLCDSIEHITHSLCTK (UniProt P47897)”, for which the “probe-labelled cysteine peptide fold change” value is, setting by setting: (10 µM) 0.0988; (50 µM) -0.441.

Consider “PYGB_P11216_437_MSVIEEGDCK (UniProt P11216)”, for which the “probe-labelled cysteine peptide fold change” value was -0.0635 (10 µM) and -0.0351 (50 µM).

Consider “PXN_P49023_290_CWAAGWPR (UniProt P49023)”, for which the “probe-labelled cysteine peptide fold change” value runs as follows: (10 µM) -0.186; (50 µM) -0.468.

For “RABGGTA_Q92696_457_DLTVLCHLEQLLLVTHLDLSHNR (UniProt Q92696)”, the “probe-labelled cysteine peptide fold change” value is, setting by setting: (10 µM) 0.288; (50 µM) 0.244.

As for RAB1A_P62820_26_SCLLLR (UniProt P62820), the “probe-labelled cysteine peptide fold change” value is -0.139 (10 µM) and -0.425 (50 µM).

In the case of “RAB11FIP1_Q6WKZ4_711_NTSSLELEESLPEQPETGRQEEELPRFPCK (UniProt Q6WKZ4)”, the “probe-labelled cysteine peptide fold change” value is -0.0697 (10 µM) and -0.758 (50 µM).

Consider “RAI14_Q9P0K7_101_NSHHECIR (UniProt Q9P0K7)”, for which the “probe-labelled cysteine peptide fold change” value (10 µM) was found to be 0.203 and the “probe-labelled cysteine peptide fold change” value (50 µM) was -0.145.

“RAD1_O60671_215_DSDLMEAFHCNQTQVNR (UniProt O60671)”: the “probe-labelled cysteine peptide fold change” value (10 µM) worked out at 0.107 and the “probe-labelled cysteine peptide fold change” value (50 µM) was 0.108.

As for “RAD50_Q92878_325_KLVDCHR (UniProt Q92878)”, the “probe-labelled cysteine peptide fold change” value (10 µM) worked out at 0.197 and the “probe-labelled cysteine peptide fold change” value (50 µM) came to 0.0158.

As to “RABL3_Q5HYI8_180_TAFLAEDFNPEEINLDCTNPR (UniProt Q5HYI8)”, the “probe-labelled cysteine peptide fold change” value reads like this: (10 µM) -0.255; (50 µM) 0.0436.

For the target “QKI_Q96PU8_119_QLEAETGCK (UniProt Q96PU8)”, the “probe-labelled cysteine peptide fold change” value amounted to 0.162 (10 µM) and 0.159 (50 µM).

As for “RACK1_P63244_240_HLYTLDGGDIINALCFSPNR (UniProt P63244)”, the “probe-labelled cysteine peptide fold change” value came out at 0.11 (10 µM) and 0.249 (50 µM).

Turning to “RAB3D_O95716_137_CDLEDERVVPAEDGR (UniProt O95716)”, the “probe-labelled cysteine peptide fold change” value (10 µM) is 0.0743 and the “probe-labelled cysteine peptide fold change” value (50 µM) was 0.204.

For “R3HCC1L_Q7Z5L2_147_KVECLEVETTDVTGHER (UniProt Q7Z5L2)”, the “probe-labelled cysteine peptide fold change” value is -0.167 (10 µM) and 0.116 (50 µM).

“QTRT2_Q9H974_312_CMDQIK (UniProt Q9H974)”: the “probe-labelled cysteine peptide fold change” value runs as follows: (10 µM) -0.276; (50 µM) -0.451.

As for “RAD54B_Q9Y620_521_AAELTCLTGLFILR (UniProt Q9Y620)”, the “probe-labelled cysteine peptide fold change” value was 0.0559 (10 µM) and -0.603 (50 µM).

With “RACK1_P63244_138_LWNTLGVCK (UniProt P63244)”, the “probe-labelled cysteine peptide fold change” value is, setting by setting: (10 µM) 0.105; (50 µM) 0.057.

On to “PYGB_P11216_808_NIACSGK (UniProt P11216)”, for which the “probe-labelled cysteine peptide fold change” value runs as follows: (10 µM) -0.00679; (50 µM) 0.0547.

As for “RABGAP1L_Q5R372_665_NNFEDLHCK (UniProt Q5R372)”, the “probe-labelled cysteine peptide fold change” value by setting is: (10 µM) 0.206; (50 µM) 0.197.

Turning to “RABGAP1_Q9Y3P9_969_QKVDDCER (UniProt Q9Y3P9)”, the “probe-labelled cysteine peptide fold change” value reads like this: (10 µM) 0.14; (50 µM) -0.388.

On to “QKI_Q96PU8_35_LMSSLPNFCGIFNHLER (UniProt Q96PU8)”, for which the “probe-labelled cysteine peptide fold change” value runs as follows: (10 µM) 0.103; (50 µM) -0.0212.

For “QDPR_P09417_161_GAVHQLCQSLAGK (UniProt P09417)”, the “probe-labelled cysteine peptide fold change” value runs as follows: (10 µM) 0.0328; (50 µM) 0.165.
